# Experimental data reported in the supplement of paper PMC8728848.
# The list shows a part of the results.
# Columns and labels:
# Assay in all cases: glycan array binding signal (z-score within array); higher = stronger binding
# Conditions in all cases: glycan notation: IUPAC condensed, linker removed; mutation: D224N
# [1] = molecular target: Neu5Ac(a2-3)Gal(b1-3)[Neu5Ac(a2-6)]GlcNAc(b1-3)[Fuc(a1-3)[Gal(b1-4)]GlcNAc(b1-6)]Gal(b1-4)Glc
# Procedure, shortened: (§1)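 Glycan array data were curated from 3228 arrays in the Consortium for Functional Glycomics database and kept only where the protein sequence was available. Glycan names were converted to IUPAC-condensed notation, and columns mapping to the same glycan were averaged. The binding signal is a within-array Z-score, averaged across arrays of the same protein sequence at different concentrations or buffers and across linkers. Negative Z-scores can be read as non-binding.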
# [2] = molecular target: Neu5Ac(a2-3)Gal(b1-3)]Neu5Ac(a2-3)Gal(b1-4)]GlcNAc
# Procedure, shortened: as §1
# Neu5Ac(a2-3)Gal(b1-4)Glc = molecular target: Neu5Ac(a2-3)Gal(b1-4)Glc
# Procedure, shortened: as §1
# [3] = molecular target: Neu5Ac(a2-3)Gal(b1-4)GlcNAc
# Procedure, shortened: as §1
# [4] = molecular target: Neu5Ac(a2-3)Gal(b1-4)GlcNAc(b1-2)Man
# Procedure, shortened: as §1
# [5] = molecular target: Neu5Ac(a2-3)Gal(b1-4)GlcNAc(b1-2)Man(a1-3)[GlcNAc(b1-4)][Neu5Ac(a2-3)Gal(b1-4)GlcNAc(b1-2)Man(a1-6)]Man(b1-4)GlcNAc(b1-4)GlcNAc
# Procedure, shortened: as §1
# [6] = molecular target: Neu5Ac(a2-3)Gal(b1-4)GlcNAc(b1-2)Man(a1-3)[Neu5Ac(a2-3)Gal(b1-4)GlcNAc(b1-2)Man(a1-6)]Man(b1-4)GlcNAc(b1-4)GlcNAc
# Procedure, shortened: as §1
# [7] = molecular target: Neu5Ac(a2-3)Gal(b1-4)GlcNAc(b1-2)Man(a1-3)[Neu5Ac(a2-3)Gal(b1-4)GlcNAc(b1-2)Man(a1-6)]Man(b1-4)GlcNAc(b1-4)[Fuc(a1-6)]GlcNAc
# Procedure, shortened: as §1
# [8] = molecular target: Neu5Ac(a2-3)Gal(b1-4)GlcNAc(b1-2)Man(a1-3)[Neu5Ac(a2-6)Gal(b1-4)GlcNAc(b1-2)Man(a1-6)]Man(b1-4)GlcNAc(b1-4)GlcNAc
# Procedure, shortened: as §1
# [9] = molecular target: Neu5Ac(a2-3)Gal(b1-4)GlcNAc(b1-2)[Neu5Ac(a2-3)Gal(b1-4)GlcNAc(b1-4)]Man(a1-3)[GlcNAc(b1-4)][Neu5Ac(a2-3)Gal(b1-4)GlcNAc(b1-2)[Neu5Ac(a2-3)Gal(b1-4)GlcNAc(b1-6)]Man(a1-6)]Man(b1-4)GlcNAc(b1-4)GlcNAc
# Procedure, shortened: as §1
# [10] = molecular target: Neu5Ac(a2-3)Gal(b1-4)GlcNAc(b1-2)[Neu5Ac(a2-3)Gal(b1-4)GlcNAc(b1-4)]Man(a1-3)[GlcNAc(b1-4)][Neu5Ac(a2-3)Gal(b1-4)GlcNAc(b1-4)Man(a1-6)]Man(b1-4)GlcNAc(b1-4)GlcNAc
# Procedure, shortened: as §1
# [11] = molecular target: Neu5Ac(a2-3)Gal(b1-4)GlcNAc(b1-2)[Neu5Ac(a2-3)Gal(b1-4)GlcNAc(b1-6)]Man(a1-6)[Neu5Ac(a2-3)Gal(b1-4)GlcNAc(b1-2)Man(a1-3)][GlcNAc(b1-4)]Man(b1-4)GlcNAc(b1-4)GlcNAc
# Procedure, shortened: as §1
# [12] = molecular target: Neu5Ac(a2-3)Gal(b1-4)GlcNAc(b1-3)Gal
# Procedure, shortened: as §1
# [13] = molecular target: Neu5Ac(a2-3)Gal(b1-4)GlcNAc(b1-3)Gal(b1-3)GlcNAc
# Procedure, shortened: as §1
# [14] = molecular target: Neu5Ac(a2-3)Gal(b1-4)GlcNAc(b1-3)Gal(b1-4)GlcNAc
# Procedure, shortened: as §1
# [15] = molecular target: Neu5Ac(a2-3)Gal(b1-4)GlcNAc(b1-3)Gal(b1-4)GlcNAc(b1-2)Man(a1-3)[Neu5Ac(a2-3)Gal(b1-4)GlcNAc(b1-3)Gal(b1-4)GlcNAc(b1-2)Man(a1-6)]Man(b1-4)GlcNAc(b1-4)GlcNAc
# Procedure, shortened: as §1
# [16] = molecular target: Neu5Ac(a2-3)Gal(b1-4)GlcNAc(b1-3)Gal(b1-4)GlcNAc(b1-3)Gal(b1-4)GlcNAc
# Procedure, shortened: as §1
# [17] = molecular target: Neu5Ac(a2-3)Gal(b1-4)GlcNAc(b1-3)Gal(b1-4)GlcNAc(b1-3)Gal(b1-4)GlcNAc(b1-2)Man(a1-3)[Neu5Ac(a2-3)Gal(b1-4)GlcNAc(b1-3)Gal(b1-4)GlcNAc(b1-3)Gal(b1-4)GlcNAc(b1-2)Man(a1-6)]GalNAc
# Procedure, shortened: as §1
# [18] = molecular target: Neu5Ac(a2-3)Gal(b1-4)GlcNAc(b1-3)Gal(b1-4)GlcNAc(b1-3)GalNAc
# Procedure, shortened: as §1
# [19] = molecular target: Neu5Ac(a2-3)Gal(b1-4)GlcNAc(b1-3)Gal(b1-4)GlcNAc(b1-3)[Neu5Ac(a2-3)Gal(b1-4)GlcNAc(b1-3)Gal(b1-4)GlcNAc(b1-6)]GalNAc
# Procedure, shortened: as §1
# [20] = molecular target: Neu5Ac(a2-3)Gal(b1-4)GlcNAc(b1-3)Gal(b1-4)GlcNAc(b1-6)[Gal(b1-3)]GalNAc
# Procedure, shortened: as §1
# [21] = molecular target: Neu5Ac(a2-3)Gal(b1-4)GlcNAc(b1-3)Gal(b1-4)[Fuc(a1-3)]GlcNAc
# Procedure, shortened: as §1
# [22] = molecular target: Neu5Ac(a2-3)Gal(b1-4)GlcNAc(b1-3)GalNAc
# Procedure, shortened: as §1
# [23] = molecular target: Neu5Ac(a2-3)Gal(b1-4)GlcNAc(b1-3)[Neu5Ac(a2-3)Gal(b1-4)GlcNAc(b1-6)]GalNAc
# Procedure, shortened: as §1
# [24] = molecular target: Neu5Ac(a2-3)Gal(b1-4)GlcNAc(b1-6)GalNAc
# Procedure, shortened: as §1
# [25] = molecular target: Neu5Ac(a2-3)Gal(b1-4)GlcNAc(b1-6)[Gal(b1-3)]GalNAc
# Procedure, shortened: as §1
# [26] = molecular target: Neu5Ac(a2-3)Gal(b1-4)GlcNAc(b1-6)[Neu5Ac(a2-3)Gal(b1-3)]GalNAc
# Procedure, shortened: as §1
# [27] = molecular target: Neu5Ac(a2-3)Gal(b1-4)GlcNAc6S
# Procedure, shortened: as §1
# [28] = molecular target: Neu5Ac(a2-3)Gal(b1-4)[Fuc(a1-3)]GlcNAc
# Procedure, shortened: as §1
# [29] = molecular target: Neu5Ac(a2-3)Gal(b1-4)[Fuc(a1-3)]GlcNAc(b1-2)Man
# Procedure, shortened: as §1
# [30] = molecular target: Neu5Ac(a2-3)Gal(b1-4)[Fuc(a1-3)]GlcNAc(b1-3)Gal
# Procedure, shortened: as §1
# [31] = molecular target: Neu5Ac(a2-3)Gal(b1-4)[Fuc(a1-3)]GlcNAc(b1-3)Gal(b1-4)GlcNAc
# Procedure, shortened: as §1
# [32] = molecular target: Neu5Ac(a2-3)Gal(b1-4)[Fuc(a1-3)]GlcNAc(b1-3)Gal(b1-4)[Fuc(a1-3)]GlcNAc(b1-3)Gal(b1-4)[Fuc(a1-3)]GlcNAc
# Procedure, shortened: as §1
# [33] = molecular target: Neu5Ac(a2-3)Gal(b1-4)[Fuc(a1-3)]GlcNAc(b1-3)GalNAc
# Procedure, shortened: as §1
# [34] = molecular target: Neu5Ac(a2-3)Gal(b1-4)[Fuc(a1-3)]GlcNAc(b1-6)[Gal(b1-3)]GalNAc
# Procedure, shortened: as §1
# [35] = molecular target: Neu5Ac(a2-3)Gal(b1-4)[Fuc(a1-3)]GlcNAc(b1-6)[Neu5Ac(a2-3)Gal(b1-3)]GalNAc
# Procedure, shortened: as §1
# [36] = molecular target: Neu5Ac(a2-3)Gal(b1-4)[Fuc(a1-3)]GlcNAc6S
# Procedure, shortened: as §1
# [37] = molecular target: Neu5Ac(a2-3)Gal6S(b1-4)GlcNAc
# Procedure, shortened: as §1
binder,measurement,setting,value
a L Fucosidase (Thermotoga maritima) (protein) MASMKPRYKPDWESLREHTVPKWFDKAKFGIFIHWGIYSVPGWATPTGELGKVPMDAWFFQNPYAEWYENSLRIKESPTWEYHVKTYGENFEYEKFADLFTAEKWDPQEWADLFKKAGAKYVIPTTKHHDGFCLWGTKYTDFNSVKRGPKRDLVGDLAKAVREAGLRFGVYYSGGLDWRFTTEPIRYPEDLSYIRPNTYEYADYAYKQVMELVDLYLPDVLWNNMGWPEKGKEDLKYLFAYYYNKHPEGSVNDRWGVPHWDFKTAEYHVNYPGDLPGYKWEFTRGIGLSFGYNRNEGPEHMLSVEQLVYTLVDVVSKGGNLLLNVGPKGDGTIPDLQKERLLGLGEWLRKYGDAIYGTSVWERCCAKTEDGTEIRFTRKCNRIFVIFLGIPTGEKIVIEDLNLSAGTVRHFLTGERLSFKNVGKNLEITVPKKLLETDSITLVLEAVEE,glycan array binding signal (z-score),[1],0.704
same,glycan array binding signal (z-score),[2],0.97
same,glycan array binding signal (z-score),Neu5Ac(a2-3)Gal(b1-4)Glc,-0.039
same,glycan array binding signal (z-score),[3],0.378
same,glycan array binding signal (z-score),[4],1.55
same,glycan array binding signal (z-score),[5],-0.196
same,glycan array binding signal (z-score),[6],1.02
same,glycan array binding signal (z-score),[7],0.12
same,glycan array binding signal (z-score),[8],-0.138
same,glycan array binding signal (z-score),[9],-0.306
same,glycan array binding signal (z-score),[10],-0.713
same,glycan array binding signal (z-score),[11],0.078
same,glycan array binding signal (z-score),[12],-0.187
same,glycan array binding signal (z-score),[13],-0.197
same,glycan array binding signal (z-score),[14],-0.169
same,glycan array binding signal (z-score),[15],0.311
same,glycan array binding signal (z-score),[16],-0.59
same,glycan array binding signal (z-score),[17],0.417
same,glycan array binding signal (z-score),[18],0.729
same,glycan array binding signal (z-score),[19],0.676
same,glycan array binding signal (z-score),[20],0.668
same,glycan array binding signal (z-score),[21],1.75
same,glycan array binding signal (z-score),[22],1.48
same,glycan array binding signal (z-score),[23],0.483
same,glycan array binding signal (z-score),[24],-0.257
same,glycan array binding signal (z-score),[25],1.11
same,glycan array binding signal (z-score),[26],-0.328
same,glycan array binding signal (z-score),[27],0.062
same,glycan array binding signal (z-score),[28],-0.941
same,glycan array binding signal (z-score),[29],0.826
same,glycan array binding signal (z-score),[30],-0.228
same,glycan array binding signal (z-score),[31],1.9
same,glycan array binding signal (z-score),[32],-0.451
same,glycan array binding signal (z-score),[33],1.3
same,glycan array binding signal (z-score),[34],0.565
same,glycan array binding signal (z-score),[35],2.83
same,glycan array binding signal (z-score),[36],0.85
same,glycan array binding signal (z-score),[37],-0.146

# Quoted at random: 2 records from the list
binder,measurement,setting,value
a L Fucosidase (Thermotoga maritima) (protein) MASMKPRYKPDWESLREHTVPKWFDKAKFGIFIHWGIYSVPGWATPTGELGKVPMDAWFFQNPYAEWYENSLRIKESPTWEYHVKTYGENFEYEKFADLFTAEKWDPQEWADLFKKAGAKYVIPTTKHHDGFCLWGTKYTDFNSVKRGPKRDLVGDLAKAVREAGLRFGVYYSGGLDWRFTTEPIRYPEDLSYIRPNTYEYADYAYKQVMELVDLYLPDVLWNNMGWPEKGKEDLKYLFAYYYNKHPEGSVNDRWGVPHWDFKTAEYHVNYPGDLPGYKWEFTRGIGLSFGYNRNEGPEHMLSVEQLVYTLVDVVSKGGNLLLNVGPKGDGTIPDLQKERLLGLGEWLRKYGDAIYGTSVWERCCAKTEDGTEIRFTRKCNRIFVIFLGIPTGEKIVIEDLNLSAGTVRHFLTGERLSFKNVGKNLEITVPKKLLETDSITLVLEAVEE,glycan array binding signal (z-score),[15],0.311
same,glycan array binding signal (z-score),[11],0.078
